From article doi:10.1101/376103 come the findings set out here.

The chains behind the UniProt entries cited, without tags or fusion partners. Where a name states a change or a piece, a line headed by the entry shows the natural chain unless it says otherwise.
UniProt P63330: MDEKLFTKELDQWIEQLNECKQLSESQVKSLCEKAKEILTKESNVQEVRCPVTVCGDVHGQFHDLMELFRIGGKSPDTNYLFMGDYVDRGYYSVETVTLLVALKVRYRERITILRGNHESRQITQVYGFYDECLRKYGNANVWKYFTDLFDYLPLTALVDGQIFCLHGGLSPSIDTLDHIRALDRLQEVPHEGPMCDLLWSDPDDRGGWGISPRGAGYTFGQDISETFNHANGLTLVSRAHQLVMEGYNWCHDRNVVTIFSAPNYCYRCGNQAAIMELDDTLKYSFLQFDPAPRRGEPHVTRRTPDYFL
UniProt Q04207: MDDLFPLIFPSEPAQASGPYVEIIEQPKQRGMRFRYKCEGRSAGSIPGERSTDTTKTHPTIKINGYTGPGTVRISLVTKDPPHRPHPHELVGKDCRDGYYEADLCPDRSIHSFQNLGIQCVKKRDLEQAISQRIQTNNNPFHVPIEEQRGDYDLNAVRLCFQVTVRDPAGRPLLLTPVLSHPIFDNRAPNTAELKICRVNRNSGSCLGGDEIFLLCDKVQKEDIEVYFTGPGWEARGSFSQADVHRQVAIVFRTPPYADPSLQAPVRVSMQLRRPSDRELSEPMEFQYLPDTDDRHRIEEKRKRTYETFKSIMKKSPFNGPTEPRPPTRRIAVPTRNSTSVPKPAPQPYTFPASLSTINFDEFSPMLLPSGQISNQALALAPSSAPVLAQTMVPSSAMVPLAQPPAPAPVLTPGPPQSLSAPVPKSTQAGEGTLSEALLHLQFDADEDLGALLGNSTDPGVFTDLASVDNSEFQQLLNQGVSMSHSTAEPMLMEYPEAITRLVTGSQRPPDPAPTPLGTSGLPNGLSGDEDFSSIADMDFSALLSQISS

No constants are given. Whether binding was seen depends on the method and setting. In cells and extracts the contact can be indirect. Binding can be weak; no strength is given.

The target of the experiment is endogenous PP2A (mouse (endogenous in MEFs, GMDCs, BMDMs)) (UniProt P63330). Description: co-IP.

Turning to “endogenous p65 (from UniProt Q04207 1-549)”, the binding result is listed as “binds”.
